PubChem BioAssay AID330 (DTP/NCI, 2004)
The list shows only some results of the screen, not a fair sample: it gathers some chemical classes. Not every dose and run of a compound is shown. T/C: endpoint of the treated group in % of that of the vehicle group. For survival time, the PubChem record calls one and a half times the control and up active, and a quarter to a half above the control has no call in these data; cut-offs in other NCI protocols can differ. Schedules are NCI's codes, taken here to give the interval after Q, in days (D) or hours (H), and the number of doses after X. Some entries show no survivor count and are marked so; the dose need not have been tolerated. Counts like (3×) stand for listed records that agree. Some entries hold several experiments; the values are given in rising order.

Tested on: P388 leukemia ip, CD2F1 mice, survival T/C
Experiment: NCI In Vivo Anticancer Drug Screen. Data for tumor model P388 Leukemia (intraperitoneal) in CD2F1 (CDF1) mice
Conditions: T/C endpoint: median survival time, higher T/C = longer survival
[1] = dose: 0.31 mg/kg/injection, schedule: Q01DX009 (ip), vehicle: saline + alcohol
[2] = dose: 0.63 mg/kg/injection, schedule: Q01DX009 (ip), vehicle: saline + alcohol
[3] = dose: 1.25 mg/kg/injection, schedule: Q01DX009 (ip), vehicle: saline + alcohol
[4] = dose: 0.15 mg/kg/injection, schedule: Q01DX009 (ip), vehicle: saline + alcohol
[5] = dose: 0.62 mg/kg/injection, schedule: Q01DX009 (ip), vehicle: saline + alcohol
[6] = dose: 2.5 mg/kg/injection, schedule: Q01DX009 (ip), vehicle: saline + alcohol
[7] = dose: 5.0 mg/kg/injection, schedule: Q01DX009 (ip), vehicle: saline + alcohol
[8] = dose: 0.5 mg/kg/injection, schedule: Q01DX009 (ip), vehicle: saline + alcohol
[9] = dose: 1.0 mg/kg/injection, schedule: Q01DX009 (ip), vehicle: saline + alcohol
[10] = dose: 2.0 mg/kg/injection, schedule: Q01DX009 (ip), vehicle: saline + alcohol
[11] = dose: 4.0 mg/kg/injection, schedule: Q01DX009 (ip), vehicle: saline + alcohol

CC1=CC2OC3CC4OC(=O)/C=C/C=C/C(=O)OCCC(C)C(O)C(=O)OCC2(CC1=O)C4(C)C31CO1 (stereo unspecified)
T/C (dose: 0.16 mg/kg/injection, schedule: Q01DX009 (ip), vehicle: saline + alcohol): 111 % of control [survivor count not shown] | T/C [1]: 120 % of control [survivor count not shown] | T/C [2]: 112 % of control [survivor count not shown] | T/C [3]: 122 % of control [survivor count not shown]

C=C(C)C(=O)OC1C(=O)C2OC3C=C(C)C(=O)CC3(COC(C)=O)C1(C)C21CO1 (stereo unspecified)
T/C (dose: 0.1 mg/kg/injection, schedule: Q01DX009 (ip), vehicle: Klucel (hydroxypropylcellulose) (HPC)): 140 % of control [survivor count not shown] | T/C (dose: 0.2 mg/kg/injection, schedule: Q01DX009 (ip), vehicle: Klucel (hydroxypropylcellulose) (HPC)): 163 % of control [survivor count not shown] | T/C (dose: 0.4 mg/kg/injection, schedule: Q01DX009 (ip), vehicle: Klucel (hydroxypropylcellulose) (HPC)): 163 % of control [survivor count not shown] | T/C (dose: 0.8 mg/kg/injection, schedule: Q01DX009 (ip), vehicle: Klucel (hydroxypropylcellulose) (HPC)): 173 % of control [survivor count not shown] | T/C (dose: 1.6 mg/kg/injection, schedule: Q01DX009 (ip), vehicle: Klucel (hydroxypropylcellulose) (HPC)): 210 % of control [survivor count not shown]

CC1=CC2OC3CC4OC(=O)/C=C/C=C/C(C(C)O)OCCC(C)C(O)C(=O)OCC2(CC1O)C4(C)C31CO1 (stereo unspecified)
T/C [4]: 126 % of control [survivor count not shown] | T/C [1]: 138 [survivor count not shown], 144 [survivor count not shown], 150 % of control [survivor count not shown] | T/C [5]: 146 [survivor count not shown], 161 [survivor count not shown], 164 % of control [survivor count not shown] | T/C [3]: 146 [survivor count not shown], 157 [survivor count not shown], 183 % of control [survivor count not shown] | T/C [6]: 148 [survivor count not shown] and 161 % of control [survivor count not shown] | T/C [7]: 93 [survivor count not shown] and 250 % of control [survivor count not shown] | T/C (dose: 5.0 micrograms/kg/injection, schedule: Q01DX009 (ip), vehicle: saline + alcohol): 111 % of control [survivor count not shown] | T/C (dose: 10.0 micrograms/kg/injection, schedule: Q01DX009 (ip), vehicle: saline + alcohol): 110 [survivor count not shown] and 119 % of control [survivor count not shown] | T/C (dose: 20.0 micrograms/kg/injection, schedule: Q01DX009 (ip), vehicle: saline + alcohol): 114 [survivor count not shown] and 130 % of control [survivor count not shown] | T/C (dose: 40.0 micrograms/kg/injection, schedule: Q01DX009 (ip), vehicle: saline + alcohol): 124 [survivor count not shown] and 139 % of control [survivor count not shown] | T/C (dose: 80.0 micrograms/kg/injection, schedule: Q01DX009 (ip), vehicle: saline + alcohol): 133 [survivor count not shown] and 146 % of control [survivor count not shown] | T/C (dose: 160.0 micrograms/kg/injection, schedule: Q01DX009 (ip), vehicle: saline + alcohol): 147 % of control [survivor count not shown]

C[C@@H]1CCOC(=O)/C=C/C=C\C(=O)O[C@@H]2C[C@H]3O[C@@H]4[C@@H]5OC5(C)CCC4(COC(=O)[C@H]1O)[C@]2(C)[C@@]31CO1 (stereo partly specified)
T/C (dose: 0.25 mg/kg/injection, schedule: Q01DX009 (ip), vehicle: saline + alcohol): 148 % of control [survivor count not shown] | T/C (dose: 0.5 mg/kg/injection, schedule: Q01DX009 (ip), vehicle: other): 145 % of control [survivor count not shown] | T/C [8]: 144 % of control [survivor count not shown] | T/C (dose: 1.0 mg/kg/injection, schedule: Q01DX009 (ip), vehicle: other): 150 % of control [survivor count not shown] | T/C [9]: 167 % of control [survivor count not shown] | T/C (dose: 2.0 mg/kg/injection, schedule: Q01DX009 (ip), vehicle: other): 142 % of control [survivor count not shown] | T/C [10]: 163 % of control [survivor count not shown] | T/C (dose: 4.0 mg/kg/injection, schedule: Q01DX009 (ip), vehicle: other): 164 % of control [survivor count not shown] | T/C [11]: 183 % of control [survivor count not shown] | T/C (dose: 8.0 mg/kg/injection, schedule: Q01DX009 (ip), vehicle: saline + alcohol): 210 % of control [survivor count not shown]

CC1=CC2O[C@@H]3C[C@H]4OC(=O)CCCCC(C(C)O)OCC(O)C5(C)OC5C(=O)OCC2(C[C@H]1O)[C@]4(C)[C@@]31CO1 (stereo partly specified)
T/C (dose: 0.62 mg/kg/injection, schedule: Q01DX005 (ip), vehicle: saline with Tween-80): 123 % of control [survivor count not shown] | T/C (dose: 1.25 mg/kg/injection, schedule: Q01DX005 (ip), vehicle: Klucel (hydroxypropylcellulose) (HPC)): 133 % of control [survivor count not shown] | T/C (dose: 1.25 mg/kg/injection, schedule: Q01DX005 (ip), vehicle: saline with Tween-80): 132 % of control [survivor count not shown] | T/C (dose: 2.5 mg/kg/injection, schedule: Q01DX005 (ip), vehicle: Klucel (hydroxypropylcellulose) (HPC)): 129 % of control [survivor count not shown] | T/C (dose: 2.5 mg/kg/injection, schedule: Q01DX005 (ip), vehicle: saline with Tween-80): 150 % of control [survivor count not shown] | T/C (dose: 5.0 mg/kg/injection, schedule: Q01DX005 (ip), vehicle: Klucel (hydroxypropylcellulose) (HPC)): 153 % of control [survivor count not shown] | T/C (dose: 5.0 mg/kg/injection, schedule: Q01DX005 (ip), vehicle: saline with Tween-80): 155 % of control [survivor count not shown] | T/C (dose: 10.0 mg/kg/injection, schedule: Q01DX005 (ip), vehicle: Klucel (hydroxypropylcellulose) (HPC)): 135 % of control [survivor count not shown] | T/C (dose: 10.0 mg/kg/injection, schedule: Q01DX005 (ip), vehicle: saline with Tween-80): 175 % of control [survivor count not shown]

C[C@@H](O)[C@H]1/C=C/C=C\C(=O)O[C@@H]2C[C@H]3O[C@@H]4[C@@H]5OC5(C)CCC4(COC(=O)[C@H]4O[C@]4(C)[C@@H](O)CO1)[C@]2(C)[C@]31CO1 (stereo partly specified)
T/C [4]: 193 % of control [survivor count not shown] | T/C [1]: 148 [survivor count not shown] and 194 % of control [survivor count not shown] | T/C [5]: 157 [survivor count not shown] and 186 % of control [survivor count not shown] | T/C [2]: 145 % of control [survivor count not shown] | T/C [3]: 155 [survivor count not shown], 191 [survivor count not shown], 194 % of control [survivor count not shown] | T/C (dose: 2.5 mg/kg/injection, schedule: Q01DX009 (ip), vehicle: Klucel (hydroxypropylcellulose) (HPC)): 169 % of control [survivor count not shown] | T/C [6]: 172 [survivor count not shown], 192 [survivor count not shown], 225 % of control [survivor count not shown] | T/C (dose: 5.0 mg/kg/injection, schedule: Q01DX009 (ip), vehicle: Klucel (hydroxypropylcellulose) (HPC)): 182 % of control [survivor count not shown] | T/C [7]: 195 [survivor count not shown], 203 [survivor count not shown], 215 % of control [survivor count not shown] | T/C (dose: 10.0 mg/kg/injection, schedule: Q01DX009 (ip), vehicle: Klucel (hydroxypropylcellulose) (HPC)): 102 % of control [survivor count not shown] | T/C (dose: 10.0 mg/kg/injection, schedule: Q01DX009 (ip), vehicle: saline + alcohol): 311 % of control [survivor count not shown] | T/C (dose: 20.0 mg/kg/injection, schedule: Q01DX009 (ip), vehicle: saline + alcohol): 196 % of control [survivor count not shown]

CC1=C[C@H]2O[C@H]3[C@H](O)[C@@H](OC(=O)CCl)[C@](C)([C@@]2(COC(=O)CCl)CC1)[C@@]31CO1
T/C [8]: 142 [survivor count not shown] and 148 % of control [survivor count not shown] | T/C [9]: 151 [survivor count not shown] and 160 % of control [survivor count not shown] | T/C [10]: 184 % of control [survivor count not shown] (2×) | T/C [11]: 210 % of control [survivor count not shown] (2×)
